How the values were obtained:
[1] = system: phAimR; assay: Small-angle X-ray scattering, wild-type phAimR; parameters: species or system Bacillus phage phi3T; settings: 100 μM phAimR with or without 200 μM SAIRGA; 25 mM Tris-HCl pH 8.0, 300 mM NaCl, room temperature
[2] = system: phAimR^Y341A/E371A; assay: Small-angle X-ray scattering, phAimR^Y341A/E371A; parameters: species or system Bacillus phage phi3T; settings: 100 μM phAimR^Y341A/E371A with or without 200 μM SAIRGA; 25 mM Tris-HCl pH 8.0, 300 mM NaCl, room temperature

Molecule | experimental molecular weight (SAXS) [1] | maximum paired distance (Dmax, SAXS) [1] | radius of gyration (Rg, SAXS) [1] | experimental molecular weight (SAXS) [2] | maximum paired distance (Dmax, SAXS) [2] | radius of gyration (Rg, SAXS) [2]
phAimR: AimR from Phi3T phage (GenBank: KY030782.1), transcription factor and arbitrium peptide receptor (protein, left off: His6, N-terminal, cleaved, AimR from Phi3T phage (GenBank: KY030782.1), transcription factor and arbitrium peptide receptor) MIKNECEKDNQLAARLAKLAGYEKVNGFYKFVNTPEKEMENLGGLLKIVKNLFPDSEEQLLSEYFLELDPNKKCARQSVEYSDINQWDTLTDKIIINLCNSKNSTSQEWGKVYSLHRKLNKNEISLNDAIRESGKCKIKSAEMLFFSNAMLMYAYLNIGEFGLMKSTSKLLEFDDLPEGFIKESFKSRVSMLEANISLNENSLLEARQHSNRAIENSNVNRICFFAYLTIGNTLIFEDYDEAKKAYIKGQKYAKNPVHQEMLDGALCFLSNIWKKENQWVNYNSDNIKYLQLRAFYYINQGNIEEATEILDELSSRDQDENELGFYYYYKGLISQDKTDYYKSIRYFKKSDDKYFIQLPLLQLERMGADLELLNLISI | 85.7 kDa | 117 Å | 33.8 Å |  |  | 
phAimR^Y341A/E371A: phAimR carrying two amino acids substitutions (protein, left off: His6, N-terminal, cleaved, phAimR carrying two amino acids substitutions) MIKNECEKDNQLAARLAKLAGYEKVNGFYKFVNTPEKEMENLGGLLKIVKNLFPDSEEQLLSEYFLELDPNKKCARQSVEYSDINQWDTLTDKIIINLCNSKNSTSQEWGKVYSLHRKLNKNEISLNDAIRESGKCKIKSAEMLFFSNAMLMYAYLNIGEFGLMKSTSKLLEFDDLPEGFIKESFKSRVSMLEANISLNENSLLEARQHSNRAIENSNVNRICFFAYLTIGNTLIFEDYDEAKKAYIKGQKYAKNPVHQEMLDGALCFLSNIWKKENQWVNYNSDNIKYLQLRAFYYINQGNIEEATEILDELSSRDQDENELGFYYYYKGLISQDKTDYAKSIRYFKKSDDKYFIQLPLLQLERMGADLALLNLISI |  |  |  | 85.6 kDa | 116 Å | 33.7 Å
